# In the supplement of paper PMC12067093, “Discovery and optimisation of a covalent ligand for TRIM25 and its application to targeted protein ubiquitination” (Chemical Science, 2025):
# Protein sequences, listed by entry. Tags and fused reporters are not part of them. Lines headed by an entry give the natural chain unless they say otherwise; changes in a name come on top.
# UniProt Q9NVH6: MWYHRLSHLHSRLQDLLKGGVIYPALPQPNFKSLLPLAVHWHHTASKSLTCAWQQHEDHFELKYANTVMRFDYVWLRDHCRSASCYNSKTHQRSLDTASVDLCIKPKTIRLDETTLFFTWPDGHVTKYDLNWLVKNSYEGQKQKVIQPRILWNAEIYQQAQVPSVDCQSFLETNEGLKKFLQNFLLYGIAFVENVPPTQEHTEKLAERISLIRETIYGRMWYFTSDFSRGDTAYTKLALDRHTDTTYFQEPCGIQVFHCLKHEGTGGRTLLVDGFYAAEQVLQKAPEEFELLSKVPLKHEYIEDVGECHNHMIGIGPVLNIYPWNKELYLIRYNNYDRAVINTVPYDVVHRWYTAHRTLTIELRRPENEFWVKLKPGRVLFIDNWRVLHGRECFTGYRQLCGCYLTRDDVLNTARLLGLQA
# UniProt Q92547, whole entry, looked up: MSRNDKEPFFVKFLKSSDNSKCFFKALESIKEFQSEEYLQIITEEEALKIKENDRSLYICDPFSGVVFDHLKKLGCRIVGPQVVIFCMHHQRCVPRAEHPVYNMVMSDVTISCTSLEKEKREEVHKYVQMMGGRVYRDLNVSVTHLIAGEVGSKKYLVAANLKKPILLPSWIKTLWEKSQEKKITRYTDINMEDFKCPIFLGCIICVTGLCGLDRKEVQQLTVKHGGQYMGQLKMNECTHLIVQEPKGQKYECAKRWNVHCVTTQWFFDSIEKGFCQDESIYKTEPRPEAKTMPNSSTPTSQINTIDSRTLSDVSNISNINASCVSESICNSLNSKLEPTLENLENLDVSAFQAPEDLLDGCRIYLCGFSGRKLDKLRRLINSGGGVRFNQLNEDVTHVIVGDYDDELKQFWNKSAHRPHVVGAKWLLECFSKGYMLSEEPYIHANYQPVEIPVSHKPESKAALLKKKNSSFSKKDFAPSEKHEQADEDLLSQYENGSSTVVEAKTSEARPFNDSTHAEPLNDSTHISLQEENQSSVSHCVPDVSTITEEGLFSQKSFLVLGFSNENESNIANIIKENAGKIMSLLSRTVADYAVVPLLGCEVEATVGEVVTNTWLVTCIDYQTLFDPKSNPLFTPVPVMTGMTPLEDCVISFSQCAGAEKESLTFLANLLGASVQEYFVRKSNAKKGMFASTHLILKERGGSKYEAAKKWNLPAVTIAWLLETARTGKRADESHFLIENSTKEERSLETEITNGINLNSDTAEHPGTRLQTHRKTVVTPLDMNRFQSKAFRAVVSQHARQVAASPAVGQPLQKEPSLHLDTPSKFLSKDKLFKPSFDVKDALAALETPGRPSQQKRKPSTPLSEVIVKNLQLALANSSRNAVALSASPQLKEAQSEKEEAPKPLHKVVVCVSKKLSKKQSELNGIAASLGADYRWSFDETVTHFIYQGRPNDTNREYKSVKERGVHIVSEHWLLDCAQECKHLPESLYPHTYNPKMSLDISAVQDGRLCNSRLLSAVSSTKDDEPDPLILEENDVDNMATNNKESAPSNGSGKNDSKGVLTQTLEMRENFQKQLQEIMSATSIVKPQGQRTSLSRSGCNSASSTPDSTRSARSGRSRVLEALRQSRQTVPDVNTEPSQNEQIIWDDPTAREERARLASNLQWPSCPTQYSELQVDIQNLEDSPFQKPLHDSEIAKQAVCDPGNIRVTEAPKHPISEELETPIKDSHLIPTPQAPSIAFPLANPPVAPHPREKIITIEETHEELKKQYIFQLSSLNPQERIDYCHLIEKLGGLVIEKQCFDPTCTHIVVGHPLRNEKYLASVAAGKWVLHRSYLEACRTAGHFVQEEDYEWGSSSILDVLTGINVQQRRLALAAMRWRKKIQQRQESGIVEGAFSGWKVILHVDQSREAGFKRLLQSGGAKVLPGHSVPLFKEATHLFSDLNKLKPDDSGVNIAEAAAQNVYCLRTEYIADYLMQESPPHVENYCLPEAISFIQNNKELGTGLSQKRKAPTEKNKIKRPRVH
# Some of the results follow.
# Experiments:
# [1] = biological target: TMLHE_Q9NVH6_51_SLTCAWQQHEDHFELK (UniProt Q9NVH6); experiment: probe-labelled cysteine peptide fold change vs DMSO (competition) (log2 fold change); higher = less target engagement (more negative = stronger competition); conditions: THP-1, incubation time: 4 h
# [2] = biological target: TOPBP1_Q92547_977_GVHIVSEHWLLDCAQECK (UniProt Q92547); experiment: as above; conditions: THP-1, incubation time: 4 h
# 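Further: competitive chemoproteomic profiling in live THP-1 cells with an iodoacetamide desthiobiotin (IA-DTB) probe, comparing probe-labelled peptide intensities in compound-treated cells against DMSO-treated controls.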
smiles,measurement,setting,value
CC1Cc2ccccc2N1C(=O)C1CCCN(C(=O)CCl)C1 (mixture of isomers) [TRIM25 ligand 11 (diastereomer mixture)],probe-labelled cysteine peptide fold change,[1]; 10 µM,-0.101
same,probe-labelled cysteine peptide fold change,[1]; 50 µM,-0.0646
same,probe-labelled cysteine peptide fold change,[2]; 10 µM,0.193
same,probe-labelled cysteine peptide fold change,[2]; 50 µM,-0.0107
